Experimental data: PubChem BioAssay AID652243 (Drosophila RNAi Screening Center, 2013)
Assay: 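Fly genes required for human androgen receptor driven transcription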 (primary screen). Cell system: Drosophila S2R+ cells. Knock-down reagent: long dsRNA against Drosophila genes. Duration: 72 h (48 h, then 24 h hormone). Challenge: synthetic androgen R1881 at 10 nM for 24 h. Detection: 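Per-well raw luminescence of the androgen-driven firefly reporter and of the Renilla control, two replicates each, without normalisation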. Reading the numbers: firefly reporter light: higher = more light from androgen-responsive reporter; Renilla control light: higher = more constitutive control signal (cell number, transfection). Call rule: 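Across duplicate plates, a knock-down whose log firefly/Renilla ratio shifted a set fold down or up from the GFP/LacZ control mean was a hit; the downward cut appears as both 1.5 and 3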. Calls: active = hit: reporter lowered or raised; inactive = no hit.
In all, the deposit lists about 24,000 reagents; this is a random part of those that have a named target and a result. Of all reagents, 246 (1%) were called active. 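Plates not normalised; calls are printed but the firefly/Renilla ratio behind them is not deposited; fold cut for lowering reported inconsistently.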 Raw values are not corrected between plates. Entries without a mark were called inactive. Names joined by + are all predicted targets of the reagent. Not stated in the record: the amount of reagent.

predicted target | dsRNA | firefly reporter light, replicate 1 | firefly reporter light, replicate 2 | Renilla control light, replicate 1 | Renilla control light, replicate 2
CG5880 | DRSC15906 | 74318 | 70659 | 7.56e5 | 6.61e5
CG4115 | DRSC15545 | 1.68e5 | 1.99e5 | 2.40e6 | 2.85e6
Cox10 (Cytochrome c oxidase assembly factor 10) | DRSC02804 | 6.43e5 | 4.71e5 | 1.23e6 | 1.11e6
CG33333 | DRSC13233 | 1.17e5 | 1.60e5 | 2.28e5 | 2.17e5
PIG-Wb (Phosphatidylinositol glycan anchor biosynthesis class W b) | DRSC08526 | 1.56e5 | 1.85e5 | 7.26e5 | 1.13e6
CG10909 | DRSC14282 | 70868 | 80290 | 1.09e6 | 1.17e6
hh (hedgehog) | DRSC16965 | 1.35e5 | 1.63e5 | 1.95e6 | 2.31e6
hh (hedgehog) | DRSC29242 | 2.33e5 (active) | 2.83e5 | 1.23e6 | 1.65e6
hh (hedgehog) | DRSC39128 | 8.50e5 | 9.35e5 | 1.90e6 | 1.86e6
mRpL13 (mitochondrial ribosomal protein L13) | DRSC02076 | 2.07e5 | 1.52e5 | 1.50e6 | 1.82e6
mRpL13 (mitochondrial ribosomal protein L13) | DRSC30067 | 1.19e6 | 5.22e5 | 1.18e6 | 8.86e5
CLS (Cardiolipin synthase) | DRSC15642 | 1.91e5 | 2.14e5 | 2.44e6 | 2.38e6
CLS (Cardiolipin synthase) | DRSC28289 | 3.34e5 | 4.85e5 | 8.91e5 | 1.07e6
CycJ (Cyclin J) | DRSC08653 | 1.40e6 | 9.71e5 | 1.63e6 | 1.15e6
CycJ (Cyclin J) | DRSC29329 | 4.88e5 | 4.83e5 | 1.36e6 | 1.36e6
CG13970 | DRSC02311 | 77519 | 59082 | 1.10e6 | 9.51e5
CG13970 | DRSC29509 | 3.16e5 | 3.70e5 | 7.98e5 | 7.98e5
Noc3 (Nucleolar complex protein 3) | DRSC12535 | 77541 | 1.02e5 | 5.18e5 | 4.35e5
CG6865 | DRSC10732 | 2.41e5 | 1.74e5 | 2.23e6 | 1.65e6
CG14566 | DRSC11727 | 1.85e5 | 1.78e5 | 1.83e6 | 1.80e6
CG14566 | DRSC25467 | 7.17e5 | 9.34e5 | 5.97e5 | 6.15e5
CG31952 | DRSC00428 | 1.39e5 | 1.00e5 | 1.32e6 | 1.36e6
CG31952 | DRSC21997 | 78008 | 98620 | 5.81e5 | 4.37e5
CG31952 | DRSC26442 | 2.76e5 | 3.04e5 | 9.26e5 | 1.02e6
NijA (Ninjurin A) | DRSC10637 | 2.14e5 | 1.81e5 | 3.22e6 | 2.27e6
CG15139 (retired record) | DRSC02439 | 1.14e5 | 1.10e5 | 9.52e5 | 1.47e6
Cpr76Bb (Cuticular protein 76Bb) | DRSC11061 | 2.24e5 | 1.98e5 | 2.27e6 | 1.88e6
Cpr76Bb (Cuticular protein 76Bb) | DRSC22870 | 5.00e5 | 9.27e5 | 1.25e6 | 1.93e6
Cpr76Bb (Cuticular protein 76Bb) | DRSC25530 | 6.82e5 | 8.98e5 | 1.05e6 | 1.23e6
CG4822 | DRSC00669 | 1.04e6 | 1.06e6 | 3.67e6 | 1.90e6

Continued (5 carried over from the part before).
predicted target | dsRNA | firefly reporter light, replicate 1 | firefly reporter light, replicate 2 | Renilla control light, replicate 1 | Renilla control light, replicate 2
CG15139 (retired record) | DRSC02439 | 1.14e5 | 1.10e5 | 9.52e5 | 1.47e6
Cpr76Bb (Cuticular protein 76Bb) | DRSC11061 | 2.24e5 | 1.98e5 | 2.27e6 | 1.88e6
Cpr76Bb (Cuticular protein 76Bb) | DRSC22870 | 5.00e5 | 9.27e5 | 1.25e6 | 1.93e6
Cpr76Bb (Cuticular protein 76Bb) | DRSC25530 | 6.82e5 | 8.98e5 | 1.05e6 | 1.23e6
CG4822 | DRSC00669 | 1.04e6 | 1.06e6 | 3.67e6 | 1.90e6
zld (zelda) | DRSC23098 | 6.03e5 | 6.96e5 | 9.56e5 | 1.27e6
zld (zelda) | DRSC25802 | 4.31e5 | 3.58e5 | 1.08e6 | 5.48e5
CG15458 | DRSC20529 | 3.01e5 | 1.26e5 | 9.40e5 | 4.14e5
CG4763 | DRSC04009 | 1.18e5 | 1.90e5 | 2.00e5 | 2.61e5
CG4763 | DRSC04487 | 3.02e5 | 3.08e5 | 1.79e6 | 1.34e6
CG5509 | DRSC15822 | 74480 | 1.09e5 | 1.11e6 | 1.60e6
CG13159 | DRSC06283 | 6.63e5 | 7.07e5 | 1.64e6 | 2.01e6
CG13159 | DRSC28093 | 5.25e5 | 4.83e5 | 2.06e6 | 1.92e6
CG7745 | DRSC23103 | 8.23e5 | 9.80e5 | 1.65e6 | 1.75e6
CG7745 | DRSC29591 | 5.93e5 | 6.02e5 | 6.90e5 | 6.90e5
CAH1 + Adat1 | DRSC02009 | 1.50e6 | 8.34e5 | 2.11e6 | 1.44e6
CG12784 | DRSC14539 | 1.73e5 | 1.84e5 | 2.14e6 | 2.64e6
CG10927 | DRSC06014 | 9.64e5 | 1.10e6 | 2.96e6 | 2.69e6
CG10927 | DRSC29800 | 3.25e5 | 5.06e5 | 9.75e5 | 1.39e6
CG14694 | DRSC14917 | 70751 | 1.03e5 | 1.71e6 | 1.99e6
Ak3 (Adenylate kinase 3) | DRSC16075 | 72720 | 1.01e5 | 2.00e6 | 2.07e6
Ak3 (Adenylate kinase 3) | DRSC27968 | 5.90e5 | 4.39e5 | 1.54e6 | 1.16e6
Ube3a (Ubiquitin protein ligase E3A) | DRSC10600 | 5.72e5 | 4.96e5 | 1.62e6 | 1.83e6
TTLL1B (Tubulin tyrosine ligase-like 1B) | DRSC08594 | 1.25e5 | 1.18e5 | 1.40e6 | 1.90e6
CG4390 | DRSC15572 | 65909 | 82202 | 4.29e5 | 6.32e5
CG4390 | DRSC26410 | 2.94e5 | 2.96e5 | 6.51e5 | 5.85e5
CG40968 (retired record) | DRSC38633 | 1.07e6 | 7.50e5 | 2.70e6 | 2.09e6
mthl12 (methuselah-like 12) | DRSC12964 | 63889 | 1.46e5 | 1.37e5 | 1.69e5
Dpy-30L2 (Dpy-30-like 2) | DRSC08205 | 2.47e5 | 2.22e5 | 3.40e6 | 2.73e6
Dpy-30L2 (Dpy-30-like 2) | DRSC25695 | 7.15e5 | 1.08e6 | 7.12e5 | 7.09e5
Hasp (Hig-anchoring scaffold protein) | DRSC02022 | 1.07e6 | 1.07e6 | 2.58e6 | 2.16e6
klar (klarsicht) | DRSC08718 | 8.59e5 | 6.35e5 | 1.20e6 | 8.57e5
klar (klarsicht) | DRSC22393 | 4.96e5 | 8.04e5 | 9.38e5 | 1.63e6
Panx (Panoramix) | DRSC04563 | 2.19e5 | 2.22e5 | 1.72e6 | 1.43e6
RpS12 (Ribosomal protein S12) | DRSC11270 | 7.57e5 | 3.94e5 | 1.10e6 | 1.21e6
Alg9 (ALG9, alpha-1,2-mannosyltransferase) | DRSC14407 | 96392 | 89497 | 5.68e5 | 6.40e5
PMP34 (Peroxisomal Membrane Protein 34) | DRSC21939 | 5.62e5 | 5.92e5 | 1.63e6 | 1.28e6
Axud1 (AXIN1 up-regulated 1) | DRSC00270 | 62829 | 75259 | 7.63e5 | 7.65e5
CG10098 | DRSC12509 | 40821 | 29690 | 2.95e5 | 3.06e5
CG10098 | DRSC26223 | 2.61e5 | 2.47e5 | 7.40e5 | 7.67e5
CG10602 | DRSC02075 | 1.28e6 | 7.72e5 | 2.14e6 | 1.82e6
CG10513 | DRSC14248 | 66258 | 94665 | 7.89e5 | 1.00e6
eEF2 (eukaryotic translation elongation factor 2) | DRSC03737 | 1.90e5 | 2.87e5 | 1.37e6 | 1.71e6
Hacd2 (3-hydroxyacyl-CoA dehydratase 2) | DRSC03181 | 2.36e5 | 2.23e5 | 1.51e6 | 1.47e6
CG7083 | DRSC11136 | 2.02e5 | 2.23e5 | 2.49e6 | 2.69e6
CG7083 | DRSC24327 | 6.04e5 | 8.46e5 | 8.52e5 | 9.24e5
bon (bonus) | DRSC16914 | 2.50e5 | 2.55e5 | 2.94e6 | 3.03e6
CG9646 | DRSC07342 | 94449 | 60183 | 1.50e6 | 1.50e6
dikar | DRSC09699 | 7.42e5 | 7.53e5 | 1.40e6 | 1.64e6
dikar | DRSC22261 | 5.26e5 | 5.34e5 | 7.13e5 | 5.87e5
dikar | DRSC26562 | 6.75e5 | 4.86e5 | 6.38e5 | 6.02e5
